Results published in patent US12144350B2, “Heterocyclic compound and harmful arthropod control composition containing same” (SUMITOMO CHEMICAL COMPANY, LIMITED, priority 2019, dated 2024).
Some of these results come from one statement about several compounds together. At least one structure is not confirmed: it was looked up by name or label, or the drawing left a doubt.

What was measured:
Type in all cases: in vivo
[1] = tested on: cotton worm (Spodoptera litura); assay: Test method 3: sprayed cabbage seedlings, 3rd instar larvae of cotton worm; details: 50 ppm, spray 20 mL/seedling on cabbage, after 5 days, 25° C.
Method: (§1) Next, Test Examples are used to show effects of the Present compounds on harmful arthropods. In the following Test Examples, the tests were carried out at 25° C.
(§2) Each test compound is formulated according to the method described in the Formulation Example 5 to obtain each formulation, and water containing Sindaine (registered trademark) (0.03% by volume) is added thereto to prepare a diluted solution containing a prescribed concentration of each test compound.
(§3) Cabbage (Brassicae oleracea) seedlings (on the developmental stage of the second to third true leaf) are planted in a container, and each of said diluted solutions is sprayed into the seedlings in a ratio of 20 mL/seedlings. Thereafter, the stem and leaf of the seedlings are cut out, and placed into a container lined with a filter paper. Five (5) the 3rd instar larvae of cotton worm (Spodoptera litura) are released into the container. After 5 days, the number of the surviving insects is counted, and the mortality of insects is calculated by the following equation. Mortality (%)=(1−Number of surviving insects/5)×100

[2] = tested on: diamondback moth (Plutella xylostella); assay: Test method 4: sprayed cabbage seedlings, 3rd instar larvae of diamondback moth; details: 50 ppm, spray 20 mL/seedling on cabbage, after 5 days, 25° C.
Method: as §1, §2
as §3, with “Cabbage” for “Cabbage (Brassicae oleracea)”, “diamondback moth (Plutella xylostella)” for “cotton worm (Spodoptera litura)”

[3] = tested on: western corn rootworm (Diabrotica virgifera virgifera); assay: Test method 5: corn seedlings immersed in diluted solution, 2nd instar larvae of western corn rootworm; details: 50 ppm, corn seedlings immersed 30 seconds, after 5 days, 25° C.
Method: as §1
Each test compound is dissolved into a mixed solution (50 μL) of polyoxyethylene sorbitan mono-cocoate and acetone (at a volume ratio of polyoxyethylene sorbitan mono-cocoate:acetone=5:95) per 1 mg of the test compound. Water containing Sindaine (registered trademark) (0.03% by volume) is added thereto to prepare a diluted solution containing a prescribed concentration of each test compound.
Young seedlings of corns (Zea mays) are immersed into each of said diluted solutions for 30 seconds. Thereafter, two of said seedlings are placed into a petri dish (diameter: 90 mm), and 10 the 2nd instar larvae of western corn rootworm (Diabrotica virgifera virgifera) are released into the dish. After 5 days, the number of the dead insects is counted, and the mortality of insects is calculated by the following equation. Mortality (%)=(Number of dead insects/10)×100

[4] = tested on: cotton aphids (Aphis gossypii); assay: Test method 1: diluted solution sprayed on cucumber seedlings infested with cotton aphids; details: 50 ppm, spray 10 mL/seedling on cucumber, 5 days after spraying, 25° C.
Method: as §1, §2
Cucumber (Cucumis sativus) seedlings (on the developmental stage of the second true leaf) are planted in a container and approximately 30 cotton aphids (Aphis gossypii) (all stages of life) are released onto the cucumber seedlings. After 1 day, each of said diluted solutions is sprayed into the seedlings in a ratio of 10 mL/seedling. After additional 5 days, the number of the surviving insects is examined and the controlling value is calculated by the following equation. Controlling value (%)={1−(Cb×Tai)/(Cai×Tb)}×100 wherein the symbols in the equation represent the following meanings.
(§4) Cb: Number of the test insects in non-treated area;
Cai: Number of the surviving insects at the time of the investigation in non-treated area; Tb: Number of the test insects in treated area;
(§5) Tai: Number of the surviving insects at the time of the investigation in treated area;
(§6) Here, the “non-treated area” represents an area where the same treatment procedure as that of the treated area is done except for not using each test compound.

[5] = tested on: cotton aphids (Aphis gossypii); assay: Test method 2: diluted solution irrigated into plant foot of cucumber seedlings, cotton aphids released after 7 days; details: 250 ppm, irrigation into plant foot 5 mL/seedling, counted after additional 6 days, 25° C.
Method: as §1
Each test compound is formulated according to the method described in the Formulation Example 5 to obtain each formulation, and water is added thereto to prepare a diluted solution containing a prescribed concentration of each test compound.
Cucumber seedlings (on the developmental stage of the second true leaf) are planted in a container, and each of said diluted solutions is irrigated into the plant foot in a ratio of 5 mL/seedlings. After 7 days, approximately 30 cotton aphids (Aphis gossypii) (all stages of life) are released onto the surfaces of leaves of the cucumber seedlings. After additional 6 days, the number of the surviving insects is examined and the controlling value is calculated by the following equation. Controlling value (%)={1−(Cb×Tai)/(Cai×Tb)}×100 wherein the symbols in the equation represent the following meanings.
as §4
Cai: Number of the surviving insects at the time of the investigation in non-treated area;
Tb: Number of the test insects in treated area;
as §5, §6

SMILES: CCS(=O)(=O)c1c(-n2ccn3nc(C(F)(F)F)cc3c2=O)nc2ccc(C(F)(F)F)cn12 [compound 2]
- mortality [1]: ≥ 80%
- mortality [2]: ≥ 80%
- mortality [3]: ≥ 80%
- controlling value [4]: ≥ 90%

SMILES: CCS(=O)(=O)c1c(-n2ccn3nc(C(F)(F)F)cc3c2=O)nc2ccc(Br)cn12 [compound 5]
- mortality [1]: ≥ 80%
- mortality [2]: ≥ 80%
- mortality [3]: ≥ 80%
- controlling value [4]: ≥ 90%

SMILES: CCS(=O)(=O)c1c(-n2ccn3nc(C(F)(F)F)cc3c2=O)nc2ccc(Cl)cn12 [compound 6]
- mortality [1]: ≥ 80%
- controlling value [5]: ≥ 90%
- mortality [2]: ≥ 80%
- mortality [3]: ≥ 80%
- controlling value [4]: ≥ 90%

SMILES: CCS(=O)(=O)c1c(-n2ccn3nc(C(F)(F)F)cc3c2=O)nc2cc(C(F)(F)F)ccn12 [compound 7]
- mortality [1]: ≥ 80%
- controlling value [5]: ≥ 90%
- mortality [2]: ≥ 80%
- mortality [3]: ≥ 80%
- controlling value [4]: ≥ 90%

SMILES: CCS(=O)(=O)c1c(-n2ccn3nc(C(F)(F)F)cc3c2=O)nc2cc(Br)ccn12 [compound 8]
- mortality [1]: ≥ 80%
- mortality [2]: ≥ 80%
- controlling value [4]: ≥ 90%

SMILES: CCS(=O)(=O)c1c(-n2ccc3nc(C(F)(F)F)cn3c2=O)nc2ccc(Br)cn12 [compound 9]
- mortality [1]: ≥ 80%
- mortality [2]: ≥ 80%
- mortality [3]: ≥ 80%
- controlling value [4]: ≥ 90%

SMILES: CCS(=O)(=O)c1c(-n2ccc3nc(C(F)(F)F)cn3c2=O)nc2ccc(C(F)(F)F)cn12 [compound 10]
- mortality [1]: ≥ 80%
- controlling value [5]: ≥ 90%
- mortality [2]: ≥ 80%
- mortality [3]: ≥ 80%
- controlling value [4]: ≥ 90%

SMILES: CCS(=O)(=O)c1c(-n2ccc3nc(C(F)(F)C(F)(F)F)cn3c2=O)nc2ccc(Cl)cn12 [compound 11]
- mortality [1]: ≥ 80%
- mortality [2]: ≥ 80%
- controlling value [4]: ≥ 90%

SMILES: CCS(=O)(=O)c1c(-n2ccc3nc(C(F)(F)F)cn3c2=O)nc2ccc(Cl)cn12 [compound 12]
- mortality [1]: ≥ 80%
- mortality [2]: ≥ 80%
- mortality [3]: ≥ 80%
- controlling value [4]: ≥ 90%

SMILES: CCOc1ccc2nc(-n3ccn4nc(C(F)(F)F)cc4c3=O)c(S(=O)(=O)CC)n2c1 [compound 14]
- mortality [1]: ≥ 80%
- mortality [2]: ≥ 80%
- controlling value [4]: ≥ 90%

SMILES: C=C(C)c1ccc2nc(-n3ccn4nc(C(F)(F)F)cc4c3=O)c(S(=O)(=O)CC)n2c1 [compound 15]
- mortality [1]: ≥ 80%
- mortality [2]: ≥ 80%
- controlling value [4]: ≥ 90%

SMILES: CCS(=O)(=O)c1c(-n2ccn3nc(C(F)(F)F)cc3c2=O)nc2ccc(C3CC3)cn12 [compound 16]
- mortality [1]: ≥ 80%
- mortality [2]: ≥ 80%
- controlling value [4]: ≥ 90%

SMILES: CCS(=O)(=O)c1c(-n2ccn3nc(C(F)(F)F)cc3c2=O)nc2ccc(-c3ccc(F)cc3)cn12 [compound 17]
- mortality [1]: ≥ 80%
- mortality [2]: ≥ 80%

SMILES: C=Cc1ccc2nc(-n3ccn4nc(C(F)(F)F)cc4c3=O)c(S(=O)(=O)CC)n2c1 [compound 19]
- mortality [1]: ≥ 80%
- mortality [2]: ≥ 80%
- controlling value [4]: ≥ 90%

SMILES: CCS(=O)(=O)c1c(-n2ccn3nc(C(F)(F)F)cc3c2=O)nc2cc(C3CC3)ccn12 [compound 20]
- mortality [1]: ≥ 80%
- mortality [2]: ≥ 80%
- controlling value [4]: ≥ 90%

SMILES: CCS(=O)(=O)c1c(-n2ccn3nc(C(F)(F)F)cc3c2=O)nc2ccccn12 [compound 21]
- mortality [1]: ≥ 80%
- controlling value [5]: ≥ 90%
- mortality [2]: ≥ 80%
- controlling value [4]: ≥ 90%

SMILES: CCS(=O)(=O)c1c(-n2ccn3nc(C(F)(F)F)cc3c2=O)nc2ccc(C(C)C)cn12 [compound 22]
- mortality [1]: ≥ 80%
- mortality [2]: ≥ 80%
- controlling value [4]: ≥ 90%

SMILES: CCS(=O)(=O)c1c(-n2ccn3nc(C(F)(F)F)cc3c2=O)nc2ccc(I)cn12 [compound 23]
- mortality [2]: ≥ 80%
- mortality [3]: ≥ 80%
- controlling value [4]: ≥ 90%

SMILES: CCS(=O)(=O)c1c(-n2ccc3nc(C(F)(F)C(F)(F)F)cn3c2=O)nc2ccc(Br)cn12 [compound 24]
- mortality [1]: ≥ 80%
- mortality [2]: ≥ 80%
- mortality [3]: ≥ 80%
- controlling value [4]: ≥ 90%

SMILES: CCS(=O)(=O)c1c(-n2ccc3nc(C(F)(F)C(F)(F)F)cn3c2=O)nc2ccc(I)cn12 [compound 25]
- mortality [1]: ≥ 80%
- mortality [2]: ≥ 80%
- mortality [3]: ≥ 80%
- controlling value [4]: ≥ 90%

SMILES: CCS(=O)(=O)c1c(-n2ccc3nc(C(F)(F)C(F)(F)F)cn3c2=O)nc2ccccn12 [compound 26]
- mortality [1]: ≥ 80%
- controlling value [5]: ≥ 90%
- mortality [2]: ≥ 80%
- mortality [3]: ≥ 80%

SMILES: CCS(=O)(=O)c1c(-n2ccc3nc(C(F)(F)C(F)(F)F)cn3c2=O)nc2ccc(C(F)(F)F)cn12 [compound 27]
- mortality [1]: ≥ 80%
- mortality [2]: ≥ 80%
- mortality [3]: ≥ 80%
- controlling value [4]: ≥ 90%

SMILES: CCS(=O)(=O)c1c(-n2ccn3nc(C(F)(F)C(F)(F)F)cc3c2=O)nc2ccc(Cl)cn12 [compound 28]
- mortality [1]: ≥ 80%
- mortality [2]: ≥ 80%
- mortality [3]: ≥ 80%
- controlling value [4]: ≥ 90%

SMILES: CCS(=O)(=O)c1c(-n2ccn3nc(C(F)(F)C(F)(F)F)cc3c2=O)nc2ccc(Br)cn12 [compound 29]
- mortality [1]: ≥ 80%
- mortality [2]: ≥ 80%
- mortality [3]: ≥ 80%
- controlling value [4]: ≥ 90%

SMILES: CCS(=O)(=O)c1c(-n2ccn3nc(C(F)(F)C(F)(F)F)cc3c2=O)nc2ccc(I)cn12 [compound 30]
- mortality [1]: ≥ 80%
- mortality [2]: ≥ 80%
- mortality [3]: ≥ 80%
- controlling value [4]: ≥ 90%

SMILES: CCS(=O)(=O)c1c(-n2ccc3nc(C(F)(F)F)cn3c2=O)nc2ccc(I)cn12 [compound 31]
- mortality [1]: ≥ 80%
- mortality [2]: ≥ 80%
- mortality [3]: ≥ 80%
- controlling value [4]: ≥ 90%
